± gives the standard deviation of the averaged measurements. The effect of the compound repeats well; differences between the knockouts mostly do not.
System: BT-20
Test: relative cell number vs DMSO control (72 h) (% of DMSO); higher = less growth inhibition (more cells)
Description: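 QMAP-Seq: a pool of 5 breast cancer cell lines (ZR-75-1, SKBR3, HCC-38, MDA-MB-231, BT-20), each carrying 12 doxycycline-inducible Cas9 sgRNA perturbations (11 knockouts plus non-targeting sgNT), was treated with compounds for 72 h at four 10-fold doses (10 nM-10 uM or 1 nM-1 uM range). Barcodes were amplified and sequenced, and cell number was interpolated from 293T spike-in standard curves. The result is expressed as % of the median of DMSO wells. Two biological replicates.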

CC[C@H](C)C(=O)O[C@H]1C[C@@H](C)C=C2C=C[C@H](C)[C@H](CC[C@@H]3C[C@@H](O)CC(=O)O3)[C@H]21 [Lovastatin]
Conditions	relative cell number
sgRNA knockout: sgATF3, 10 nM	101 ± 19
sgRNA knockout: sgATF3, 100 nM	82.8 ± 9.8
sgRNA knockout: sgATF3, 1000 nM	89.2 ± 13
sgRNA knockout: sgATF3, 10000 nM	63.3 ± 13
sgRNA knockout: sgATF4, 10 nM	107 ± 10
sgRNA knockout: sgATF4, 100 nM	96 ± 1.3
sgRNA knockout: sgATF4, 1000 nM	100 ± 15
sgRNA knockout: sgATF4, 10000 nM	80.6 ± 4.4
sgRNA knockout: sgATF6, 10 nM	113 ± 17
sgRNA knockout: sgATF6, 100 nM	70.5 ± 22
sgRNA knockout: sgATF6, 1000 nM	89.6 ± 17
sgRNA knockout: sgATF6, 10000 nM	61.2 ± 10
sgRNA knockout: sgATG7, 10 nM	124 ± 15
sgRNA knockout: sgATG7, 100 nM	85.2 ± 9
sgRNA knockout: sgATG7, 1000 nM	101 ± 12
sgRNA knockout: sgATG7, 10000 nM	66.6 ± 2.1
sgRNA knockout: sgERN1, 10 nM	100 ± 5.4
sgRNA knockout: sgERN1, 100 nM	93.3 ± 1.7
sgRNA knockout: sgERN1, 1000 nM	96.2 ± 2.1
sgRNA knockout: sgERN1, 10000 nM	85.3 ± 8.2
sgRNA knockout: sgHSF1, 10 nM	105 ± 2.5
sgRNA knockout: sgHSF1, 100 nM	86.1 ± 20
sgRNA knockout: sgHSF1, 1000 nM	95.8 ± 2.6
sgRNA knockout: sgHSF1, 10000 nM	78.5 ± 12
sgRNA knockout: sgHSF2, 10 nM	114 ± 1.1
sgRNA knockout: sgHSF2, 100 nM	81.4 ± 5
sgRNA knockout: sgHSF2, 1000 nM	89.6 ± 7.4
sgRNA knockout: sgHSF2, 10000 nM	71.7 ± 3.3
sgRNA knockout: sgKEAP1, 10 nM	97.6 ± 10
sgRNA knockout: sgKEAP1, 100 nM	85.6 ± 7
sgRNA knockout: sgKEAP1, 1000 nM	98.1 ± 12
sgRNA knockout: sgKEAP1, 10000 nM	79.2 ± 9.3
sgRNA knockout: sgNFE2L2, 10 nM	94.3 ± 8.9
sgRNA knockout: sgNFE2L2, 100 nM	94.9 ± 4.8
sgRNA knockout: sgNFE2L2, 1000 nM	95.4 ± 8.4
sgRNA knockout: sgNFE2L2, 10000 nM	65.4 ± 12
sgRNA knockout: sgSLC35F2, 10 nM	103 ± 11
sgRNA knockout: sgSLC35F2, 100 nM	97 ± 24
sgRNA knockout: sgSLC35F2, 1000 nM	99 ± 16
sgRNA knockout: sgSLC35F2, 10000 nM	102 ± 3.8
sgRNA knockout: sgXBP1, 10 nM	109 ± 7.9
sgRNA knockout: sgXBP1, 100 nM	84.1 ± 0.95
sgRNA knockout: sgXBP1, 1000 nM	103 ± 3.3
sgRNA knockout: sgXBP1, 10000 nM	79.6 ± 2.8

CC(=O)Nc1nc(C)c(S(=O)(=O)Nc2ccc(C(O)(C(F)(F)F)C(F)(F)F)cc2)s1 [SR1001]
Conditions	relative cell number
sgRNA knockout: sgATF3, 10 nM	106 ± 24
sgRNA knockout: sgATF3, 100 nM	86.6 ± 10
sgRNA knockout: sgATF3, 1000 nM	107 ± 20
sgRNA knockout: sgATF3, 10000 nM	97.1 ± 4
sgRNA knockout: sgATF4, 10 nM	107 ± 6.7
sgRNA knockout: sgATF4, 100 nM	94.7 ± 11
sgRNA knockout: sgATF4, 1000 nM	111 ± 16
sgRNA knockout: sgATF4, 10000 nM	114 ± 20
sgRNA knockout: sgATF6, 10 nM	98.1 ± 3
sgRNA knockout: sgATF6, 100 nM	94.6 ± 1
sgRNA knockout: sgATF6, 1000 nM	116.5 ± 1
sgRNA knockout: sgATF6, 10000 nM	116 ± 3
sgRNA knockout: sgATG7, 10 nM	108 ± 3.9
sgRNA knockout: sgATG7, 100 nM	89.7 ± 12
sgRNA knockout: sgATG7, 1000 nM	124 ± 22
sgRNA knockout: sgATG7, 10000 nM	103 ± 12
sgRNA knockout: sgERN1, 10 nM	91.8 ± 13
sgRNA knockout: sgERN1, 100 nM	95.7 ± 17
sgRNA knockout: sgERN1, 1000 nM	120 ± 2.7
sgRNA knockout: sgERN1, 10000 nM	120 ± 11
sgRNA knockout: sgHSF1, 10 nM	98.2 ± 13
sgRNA knockout: sgHSF1, 100 nM	97.2 ± 9.7
sgRNA knockout: sgHSF1, 1000 nM	108 ± 9.9
sgRNA knockout: sgHSF1, 10000 nM	102 ± 6.1
sgRNA knockout: sgHSF2, 10 nM	96.9 ± 4
sgRNA knockout: sgHSF2, 100 nM	79.2 ± 20
sgRNA knockout: sgHSF2, 1000 nM	121 ± 29
sgRNA knockout: sgHSF2, 10000 nM	116 ± 8.2
sgRNA knockout: sgKEAP1, 10 nM	94.1 ± 14
sgRNA knockout: sgKEAP1, 100 nM	90.1 ± 4.2
sgRNA knockout: sgKEAP1, 1000 nM	111 ± 4.7
sgRNA knockout: sgKEAP1, 10000 nM	107 ± 11
sgRNA knockout: sgNFE2L2, 10 nM	110 ± 25
sgRNA knockout: sgNFE2L2, 100 nM	99.5 ± 9.4
sgRNA knockout: sgNFE2L2, 1000 nM	110 ± 32
sgRNA knockout: sgNFE2L2, 10000 nM	126 ± 26
sgRNA knockout: sgSLC35F2, 10 nM	101 ± 12
sgRNA knockout: sgSLC35F2, 100 nM	84.8 ± 4.6
sgRNA knockout: sgSLC35F2, 1000 nM	106 ± 1.8
sgRNA knockout: sgSLC35F2, 10000 nM	120 ± 1.3
sgRNA knockout: sgXBP1, 10 nM	103.9 ± 0.61
sgRNA knockout: sgXBP1, 100 nM	111 ± 23
sgRNA knockout: sgXBP1, 1000 nM	119 ± 25
sgRNA knockout: sgXBP1, 10000 nM	108 ± 13

COc1cc([C@@H]2c3cc4c(cc3[C@@H](O[C@@H]3O[C@@H]5CO[C@@H](C)O[C@H]5[C@H](O)[C@H]3O)[C@H]3COC(=O)[C@H]23)OCO4)cc(OC)c1O [Etoposide]
Conditions	relative cell number
sgRNA knockout: sgATF3, 10 nM	78.7 ± 12
sgRNA knockout: sgATF3, 100 nM	77.9 ± 8.6
sgRNA knockout: sgATF3, 1000 nM	57 ± 8.5
sgRNA knockout: sgATF3, 10000 nM	36 ± 3
sgRNA knockout: sgATF4, 10 nM	70.1 ± 24
sgRNA knockout: sgATF4, 100 nM	85 ± 6.2
sgRNA knockout: sgATF4, 1000 nM	60.1 ± 6.2
sgRNA knockout: sgATF4, 10000 nM	32.5 ± 4.2
sgRNA knockout: sgATF6, 10 nM	68.7 ± 17
sgRNA knockout: sgATF6, 100 nM	85.9 ± 8
sgRNA knockout: sgATF6, 1000 nM	56.3 ± 12
sgRNA knockout: sgATF6, 10000 nM	26.5 ± 2.7
sgRNA knockout: sgATG7, 10 nM	76.9 ± 24
sgRNA knockout: sgATG7, 100 nM	88.6 ± 13
sgRNA knockout: sgATG7, 1000 nM	56.8 ± 22
sgRNA knockout: sgATG7, 10000 nM	33.3 ± 5
sgRNA knockout: sgERN1, 10 nM	67.8 ± 3.6
sgRNA knockout: sgERN1, 100 nM	81.8 ± 1.3
sgRNA knockout: sgERN1, 1000 nM	59 ± 3.4
sgRNA knockout: sgERN1, 10000 nM	31.8 ± 10
sgRNA knockout: sgHSF1, 10 nM	62 ± 9.5
sgRNA knockout: sgHSF1, 100 nM	77.7 ± 3.2
sgRNA knockout: sgHSF1, 1000 nM	47 ± 6.9
sgRNA knockout: sgHSF1, 10000 nM	27.9 ± 2.7
sgRNA knockout: sgHSF2, 10 nM	63.9 ± 35
sgRNA knockout: sgHSF2, 100 nM	99.8 ± 1.3
sgRNA knockout: sgHSF2, 1000 nM	76.6 ± 12
sgRNA knockout: sgHSF2, 10000 nM	44.8 ± 0.5
sgRNA knockout: sgKEAP1, 10 nM	76.4 ± 36
sgRNA knockout: sgKEAP1, 100 nM	79.5 ± 8.8
sgRNA knockout: sgKEAP1, 1000 nM	60.7 ± 9.8
sgRNA knockout: sgKEAP1, 10000 nM	38.2 ± 9.6
sgRNA knockout: sgNFE2L2, 10 nM	60.5 ± 16
sgRNA knockout: sgNFE2L2, 100 nM	75.3 ± 19
sgRNA knockout: sgNFE2L2, 1000 nM	41.9 ± 8.5
sgRNA knockout: sgNFE2L2, 10000 nM	21.2 ± 2.6
sgRNA knockout: sgSLC35F2, 10 nM	83.1 ± 25
sgRNA knockout: sgSLC35F2, 100 nM	82.6 ± 1.8
sgRNA knockout: sgSLC35F2, 1000 nM	65.756 ± 0.011
sgRNA knockout: sgSLC35F2, 10000 nM	36.6 ± 4
sgRNA knockout: sgXBP1, 10 nM	63.5 ± 22
sgRNA knockout: sgXBP1, 100 nM	79.9 ± 11
sgRNA knockout: sgXBP1, 1000 nM	53.3 ± 6.2
sgRNA knockout: sgXBP1, 10000 nM	24.4 ± 0.28

Reference: the supplement of paper PMC7661543
